Values from PubChem BioAssay AID504808 (Drosophila RNAi Screening Center, 2011)

Aim: 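Genes whose loss lifts activity of an E2F-responsive reporter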 (primary screen)
Cells: Drosophila S2 cells
Reagents: long dsRNA against Drosophila genes
Measurement: 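Dual luciferase plate measurements; E2F-specific signal taken as firefly over Renilla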
Reading the numbers: E2F firefly: higher = more E2F reporter activity; Renilla normaliser: higher = more normaliser reporter signal
Rule for the call: 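a knock-down counted as active when the firefly/Renilla E2F signal rose above 50%, a threshold chosen arbitrarily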
In all, the deposit lists about 21,000 reagents; this is a random part of those with a known target gene and a result. In the full data, 18 (0.084%) were called active. 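Raw counts without plate normalisation, one of two replicates; the ratio scores behind the calls were not deposited.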 Unmarked entries are inactive. A plus sign joins genes that one reagent is predicted to hit. Not stated in the record: the amount of reagent, the time to read-out.

How did the screen score CG13228 [DRSC06348]?
E2F firefly, rep 1: 92377; Renilla normaliser, rep 1: 3860

With Syx17 [DRSC08591], what was measured?
E2F firefly, rep 1: 82507; Renilla normaliser, rep 1: 3879

What is on record for vg [DRSC07715]?
E2F firefly, rep 1: 85485; Renilla normaliser, rep 1: 4090

For Osi1 [DRSC12271], how do the results read?
E2F firefly, rep 1: 1.14e5; Renilla normaliser, rep 1: 4937

Which result is listed for Oseg6 [DRSC06066]?
E2F firefly, rep 1: 1.44e5; Renilla normaliser, rep 1: 5132

For CG18190 [DRSC06714], what was measured?
E2F firefly, rep 1: 1.45e5; Renilla normaliser, rep 1: 4752

What did the screen give for Tm2 [DRSC16887]?
E2F firefly, rep 1: 91895; Renilla normaliser, rep 1: 5311

For CG15414 [DRSC00429], what was measured?
E2F firefly, rep 1: 1.56e5; Renilla normaliser, rep 1: 5185

What is on record for CG13896 [DRSC08366]?
E2F firefly, rep 1: 92376; Renilla normaliser, rep 1: 3979

In a second layout: 4 of the entries above.
{"gene": "CG13228", "amplicon": "DRSC06348", "E2F firefly, rep 1": 92377, "Renilla normaliser, rep 1": 3860}
{"gene": "Syx17", "amplicon": "DRSC08591", "E2F firefly, rep 1": 82507, "Renilla normaliser, rep 1": 3879}
{"gene": "vg", "amplicon": "DRSC07715", "E2F firefly, rep 1": 85485, "Renilla normaliser, rep 1": 4090}
{"gene": "Osi1", "amplicon": "DRSC12271", "E2F firefly, rep 1": 1.14e5, "Renilla normaliser, rep 1": 4937}

Additional records follow.
With CG9287 [DRSC03186], what does the deposit list?
E2F firefly, rep 1: 1.53e5; Renilla normaliser, rep 1: 4889

For lama [DRSC11361], how do the results read?
E2F firefly, rep 1: 68544; Renilla normaliser, rep 1: 3333

For CG4984 + CG4975 [DRSC06907], what was measured?
E2F firefly, rep 1: 1.55e5; Renilla normaliser, rep 1: 5280

Which result is listed for CG4984 + CG4975 [DRSC06908]?
E2F firefly, rep 1: 73784; Renilla normaliser, rep 1: 3665

How did the screen score CG34348 [DRSC19425]?
E2F firefly, rep 1: 1.24e5; Renilla normaliser, rep 1: 5892

What did the screen give for CG34348 [DRSC19644]?
E2F firefly, rep 1: 1.42e5; Renilla normaliser, rep 1: 6017

How did the screen score CG8547 [DRSC07211]?
E2F firefly, rep 1: 2786; Renilla normaliser, rep 1: 195

What is on record for CG14448 [DRSC11705]?
E2F firefly, rep 1: 1.52e5; Renilla normaliser, rep 1: 7309

For CG32548 [DRSC19627], what was measured?
E2F firefly, rep 1: 1.72e5; Renilla normaliser, rep 1: 7511

Which result is listed for CG32548 [DRSC19982]?
E2F firefly, rep 1: 1.49e5; Renilla normaliser, rep 1: 5273

How did the screen score drongo [DRSC00814]?
E2F firefly, rep 1: 88371; Renilla normaliser, rep 1: 4351

How did the screen score CG13083 [DRSC02187]?
E2F firefly, rep 1: 1.07e5; Renilla normaliser, rep 1: 4149

For tin [DRSC17083], what does the deposit list?
E2F firefly, rep 1: 1.19e5; Renilla normaliser, rep 1: 5564

Which result is listed for CG42323 [DRSC19629]?
E2F firefly, rep 1: 1.60e5; Renilla normaliser, rep 1: 6406

Which result is listed for tj [DRSC02011]?
E2F firefly, rep 1: 96756; Renilla normaliser, rep 1: 3839

Which result is listed for CG2812 [DRSC04319]?
E2F firefly, rep 1: 1.18e5; Renilla normaliser, rep 1: 4188

What did the screen give for CG6688 [DRSC16094]?
E2F firefly, rep 1: 1.13e5; Renilla normaliser, rep 1: 5673

With CG14968 [DRSC08427], how do the results read?
E2F firefly, rep 1: 93614; Renilla normaliser, rep 1: 3445

What is on record for CG6168 [DRSC10596]?
E2F firefly, rep 1: 1.40e5; Renilla normaliser, rep 1: 7335
